The text below walks through data of paper PMC12462475.

For the experiment, the target named is Synechocystis CurT-6xHis (Synechocystis sp. PCC 6803). Nature of the experiment: affinity purification with mass spectrometry; Ni-NTA pulldown of CurT-6xHis from Nonidet P40-solubilized Synechocystis whole-cell extract; washes with binding buffer and 30 mM imidazole, elution with 200 and 500 mM imidazole; compared with WT, n = 4.

No constants are given. Whether binding was seen depends on the method and setting. Binding seen in cells or lysates may run through a third protein. These calls come from enrichment with a bait or labelling near it, and not all partners need be listed. No binding means not detected with the bait.

B1: Synechocystis FtsZ, endogenous (protein, UniProt P73456 1-430)
chain: MTLNNDLPLNNIGFTGSGLNDGTEGLDDLFSSSIVDNEPLEALVETPTFASPSPNLKRDQIVPSNIAKIKVIGVGGGGCNAVNRMIASGVTGIDFWAINTDSQALTNTNAPDCIQIGQKLTRGLGAGGNPAIGQKAAEESRDEIARSLEGTDLVFITAGMGGGTGTGAAPIVAEVAKEMGCLTVGIVTRPFTFEGRRRAKQAEEGINALQSRVDTLIVIPNNQLLSVIPAETPLQEAFRVADDILRQGVQGISDIIIIPGLVNVDFADVRAVMADAGSALMGIGVGSGKSRAKEAATAAISSPLLESSIQGAKGVVFNVTGGTDLTLHEVNVAAEIIYEVVDADANIIFGAVIDDRLQGEMRITVIATGFNGEKEKPQAKTSSKPVLSGPPAGVETVPSTTTPEDPLGEIPMAPELDIPDFLQKRRFPRR
Turning to B1, the binding entry is reported as “binds”.

B2: Synechocystis SepF, endogenous (protein, UniProt P73376 1-186)
chain: MILTKLKDFVGISEHDEYEEDYDEEMEFPQSVASQPPAEEVAPPPRISREPLSLNNETSIGTGVRNNVIGMPGINNSVAEVVVVEPHSFDEMPQVIQTLRERKSVVLNLNVMDPEEAQRAVDFVAGGTFAMDGHQERIGESIFLFTPNCVKVSSLAGRSQESNETSSSVSSDNFPTWGYETSRLAQ
For the molecule B2, the binding entry is “no binding”.
